According to PMC4741580:
No constants are given. Whether binding was seen depends on the method and setting. Binding seen in cells or lysates may run through a third protein. Some binding calls cover weakened binding; strength is not graded here.

The chains behind the UniProt entries cited, without tags or fusion partners. Where a name states a change or a piece, a line headed by the entry shows the natural chain unless it says otherwise.
UniProt P38936: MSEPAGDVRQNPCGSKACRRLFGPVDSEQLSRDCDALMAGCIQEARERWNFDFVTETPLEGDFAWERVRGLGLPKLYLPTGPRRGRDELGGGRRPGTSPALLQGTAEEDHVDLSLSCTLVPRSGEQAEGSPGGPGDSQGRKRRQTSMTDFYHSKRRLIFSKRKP
UniProt Q96LA8: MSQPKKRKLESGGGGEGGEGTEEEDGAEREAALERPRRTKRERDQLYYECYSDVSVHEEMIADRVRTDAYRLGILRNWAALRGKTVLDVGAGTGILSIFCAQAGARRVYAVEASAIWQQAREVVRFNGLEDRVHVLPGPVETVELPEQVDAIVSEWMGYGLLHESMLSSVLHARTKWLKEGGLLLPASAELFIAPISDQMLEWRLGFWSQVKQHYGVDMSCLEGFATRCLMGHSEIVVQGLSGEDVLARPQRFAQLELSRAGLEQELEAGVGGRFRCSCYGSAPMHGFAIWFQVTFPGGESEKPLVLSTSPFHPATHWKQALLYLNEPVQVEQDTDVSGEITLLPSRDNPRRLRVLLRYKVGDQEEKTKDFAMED

Tests used:
[1] = target: p21^CDKN1A, endogenous (human (endogenous in 293T)) (UniProt P38936); experiment: co-IP; endogenous proteins: whole-cell extract with a primary antibody at 4°C overnight, protein A/G agarose beads, three washes with PBS, elution by boiling; western blot
HA-p21 (human) = HA-p21 (human) (UniProt P38936); experiment: co-IP; transfected 293T cells lysed 48 h after transfection with CelLytic M; whole-cell extract with anti-FLAG M2 or anti-HA agarose beads at 4°C overnight, three washes with PBS, elution with FLAG or HA peptide; western blot
[2] = target: exogenous p21 (co-immunoprecipitation with the PRMT6 fragment) (human) (UniProt P38936); experiment: as above

binding [1]	binding (HA-p21 (human))	binding [2]	Substance
binds	binds	–	protein arginine methyltransferase 6 (PRMT6), endogenous (from UniProt Q96LA8 1-375) (enzyme)
–	–	binds	partial PRMT6 protein (aa 1–209) (from UniProt Q96LA8 1-209) (domain or fragment)
